No constants are given. Whether binding was seen depends on the method and setting. Binding seen in cells or lysates may run through a third protein. Here binding means that the protein was enriched with, or labelled near, the bait; the list need not be complete. Sequences can lack the tags named with a protein.
B1: mRNA export factor (protein, UniProt P78406 1-368)
chain: MSLFGTTSGFGTSGTSMFGSATTDNHNPMKDIEVTSSPDDSIGCLSFSPPTLPGNFLIAGSWANDVRCWEVQDSGQTIPKAQQMHTGPVLDVCWSDDGSKVFTASCDKTAKMWDLSSNQAIQIAQHDAPVKTIHWIKAPNYSCVMTGSWDKTLKFWDTRSSNPMMVLQLPERCYCADVIYPMAVVATAERGLIVYQLENQPSEFRRIESPLKHQHRCVAIFKDKQNKPTGFALGSIEGRVAIHYINPPNPAKDNFTFKCHRSNGTNTSAPQDIYAVNGIAFHPVHGTLATVGSDGRFSFWDKDARTKLKTSEQLDQPISACCFNHNGNIFAYASSYDWSKGHEFYNPQKKNYIFLRNAAEELKPRNKK
B2: Protein disulfide-isomerase A6 (protein, UniProt Q15084 20-440)
chain: LYSSSDDVIELTPSNFNREVIQSDSLWLVEFYAPWCGHCQRLTPEWKKAATALKDVVKVGAVDADKHHSLGGQYGVQGFPTIKIFGSNKNRPEDYQGGRTGEAIVDAALSALRQLVKDRLGGRSGGYSSGKQGRSDSSSKKDVIELTDDSFDKNVLDSEDVWMVEFYAPWCGHCKNLEPEWAAAASEVKEQTKGKVKLAAVDATVNQVLASRYGIRGFPTIKIFQKGESPVDYDGGRTRSDIVSRALDLFSDNAPPPELLEIINEDIAKRTCEEHQLCVVAVLPHILDTGAAGRNSYLEVLLKLADKYKKKMWGWLWTEAGAQSELETALGIGGFGYPAMAAINARKMKFALLKGSFSEQGINEFLRELSFGRGSTAPVGGGAFPTIVEREPWDGRDGELPVEDDIDLSDVELDDLGKDEL
B3: Stromal cell-derived factor 2-like protein 1 (protein, UniProt Q9HCN8 29-221)
chain: AKTGAELVTCGSVLKLLNTHHRVRLHSHDIKYGSGSGQQSVTGVEASDDANSYWRIRGGSEGGCPRGSPVRCGQAVRLTHVLTGKNLHTHHFPSPLSNNQEVSAFGEDGEGDDLDLWTVRCSGQHWEREAAVRFQHVGTSVFLSVTGEQYGSPIRGQHEVHGMPSANTHNTWKAMEGIFIKPSVEPSAGHDEL
B4: Heat shock protein 75 kDa, mitochondrial (protein, UniProt Q12931 60-704)
chain: STQTAEDKEEPLHSIISSTESVQGSTSKHEFQAETKKLLDIVARSLYSEKEVFIRELISNASDALEKLRHKLVSDGQALPEMEIHLQTNAEKGTITIQDTGIGMTQEELVSNLGTIARSGSKAFLDALQNQAEASSKIIGQFGVGFYSAFMVADRVEVYSRSAAPGSLGYQWLSDGSGVFEIAEASGVRTGTKIIIHLKSDCKEFSSEARVRDVVTKYSNFVSFPLYLNGRRMNTLQAIWMMDPKDVREWQHEEFYRYVAQAHDKPRYTLHYKTDAPLNIRSIFYVPDMKPSMFDVSRELGSSVALYSRKVLIQTKATDILPKWLRFIRGVVDSEDIPLNLSRELLQESALIRKLRDVLQQRLIKFFIDQSKKDAEKYAKFFEDYGLFMREGIVTATEQEVKEDIAKLLRYESSALPSGQLTSLSEYASRMRAGTRNIYYLCAPNRHLAEHSPYYEAMKKKDTEVLFCFEQFDELTLLHLREFDKKKLISVETDIVVDHYKEEKFEDRSPAAECLSEKETEELMAWMRNVLGSRVTNVKVTLRLDTHPAMVTVLEMGAARHFLRMQQLAKTQEERAQLLQPTLEINPRHALIKKLNQLRASEPGLAQLLVDQIYENAMIAAGLVDDPRAMVGRLNELLVKALERH
B5: Hsp90 co-chaperone Cdc37 (protein, UniProt Q16543 1-378)
chain: MVDYSVWDHIEVSDDEDETHPNIDTASLFRWRHQARVERMEQFQKEKEELDRGCRECKRKVAECQRKLKELEVAEGGKAELERLQAEAQQLRKEERSWEQKLEEMRKKEKSMPWNVDTLSKDGFSKSMVNTKPEKTEEDSEEVREQKHKTFVEKYEKQIKHFGMLRRWDDSQKYLSDNVHLVCEETANYLVIWCIDLEVEEKCALMEQVAHQTIVMQFILELAKSLKVDPRACFRQFFTKIKTADRQYMEGFNDELEAFKERVRGRAKLRIEKAMKEYEEEERKKRLGPGGLDPVEVYESLPEELQKCFDVKDVQMLQDAISKMDPTDAKYHMQRCIDSGLWVPNSKASEAKEGEEAGPGDPLLEAVPKTGDEKDVSV
B6: 14-3-3 protein gamma, endogenous (protein, UniProt P61981 1-247)
chain: MVDREQLVQKARLAEQAERYDDMAAAMKNVTELNEPLSNEERNLLSVAYKNVVGARRSSWRVISSIEQKTSADGNEKKIEMVRAYREKIEKELEAVCQDVLSLLDNYLIKNCSETQYESKVFYLKMKGDYYRYLAEVATGEKRATVVESSEKAYSEAHEISKEHMQPTHPIRLGLALNYSVFYYEIQNAPEQACHLAKTAFDDAIAELDTLNEDSYKDSTLIMQLLRDNLTLWTSDQQDDDGGEGNN
B7: Neutral alpha-glucosidase AB (protein, UniProt Q14697 29-944)
chain: ITLAVDRSNFKTCEESSFCKRQRSIRPGLSPYRALLDSLQLGPDSLTVHLIHEVTKVLLVLELQGLQKNMTRFRIDELEPRRPRYRVPDVLVADPPIARLSVSGRDENSVELTMAEGPYKIILTARPFRLDLLEDRSLLLSVNARGLLEFEHQRAPRVSQGSKDPAEGDGAQPEETPRDGDKPEETQGKAEKDEPGAWEETFKTHSDSKPYGPMSVGLDFSLPGMEHVYGIPEHADNLRLKVTEGGEPYRLYNLDVFQYELYNPMALYGSVPVLLAHNPHRDLGIFWLNAAETWVDISSNTAGKTLFGKMMDYLQGSGETPQTDVRWMSETGIIDVFLLLGPSISDVFRQYASLTGTQALPPLFSLGYHQSRWNYRDEADVLEVDQGFDDHNLPCDVIWLDIEHADGKRYFTWDPSRFPQPRTMLERLASKRRKLVAIVDPHIKVDSGYRVHEELRNLGLYVKTRDGSDYEGWCWPGSAGYPDFTNPTMRAWWANMFSYDNYEGSAPNLFVWNDMNEPSVFNGPEVTMLKDAQHYGGWEHRDVHNIYGLYVHMATADGLRQRSGGMERPFVLARAFFAGSQRFGAVWTGDNTAEWDHLKISIPMCLSLGLVGLSFCGADVGGFFKNPEPELLVRWYQMGAYQPFFRAHAHLDTGRREPWLLPSQHNDIIRDALGQRYSLLPFWYTLLYQAHREGIPVMRPLWVQYPQDVTTFNIDDQYLLGDALLVHPVSDSGAHGVQVYLPGQGEVWYDIQSYQKHHGPQTLYLPVTLSSIPVFQRGGTIVPRWMRVRRSSECMKDDPITLFVALSPQGTAQGELFLDDGHTFNYQTRQEFLLRRFSFSGNTLVSSSADPEGHFETPIWIERVVIIGAGKPAAVVLQTKGSPESRLSFQHDPETSVLVLRKPGINVASDWSIHLR
B8: Non-POU domain-containing octamer-binding protein (protein, UniProt Q15233 1-471)
chain: MQSNKTFNLEKQNHTPRKHHQHHHQQQHHQQQQQQPPPPPIPANGQQASSQNEGLTIDLKNFRKPGEKTFTQRSRLFVGNLPPDITEEEMRKLFEKYGKAGEVFIHKDKGFGFIRLETRTLAEIAKVELDNMPLRGKQLRVRFACHSASLTVRNLPQYVSNELLEEAFSVFGQVERAVVIVDDRGRPSGKGIVEFSGKPAARKALDRCSEGSFLLTTFPRPVTVEPMDQLDDEEGLPEKLVIKNQQFHKEREQPPRFAQPGSFEYEYAMRWKALIEMEKQQQDQVDRNIKEAREKLEMEMEAARHEHQVMLMRQDLMRRQEELRRMEELHNQEVQKRKQLELRQEEERRRREEEMRRQQEEMMRRQQEGFKGTFPDAREQEIRMGQMAMGGAMGINNRGAMPPAPVPAGTPAPPGPATMMPDGTLGLTPPTTERFGQAATMEGIGAIGGTPPAFNRAAPGAEFAPNKRRRY

Sequences of proteins named here, by UniProt entry; tags and fusion partners are left off. Residues count along the entry.
UniProt P16788: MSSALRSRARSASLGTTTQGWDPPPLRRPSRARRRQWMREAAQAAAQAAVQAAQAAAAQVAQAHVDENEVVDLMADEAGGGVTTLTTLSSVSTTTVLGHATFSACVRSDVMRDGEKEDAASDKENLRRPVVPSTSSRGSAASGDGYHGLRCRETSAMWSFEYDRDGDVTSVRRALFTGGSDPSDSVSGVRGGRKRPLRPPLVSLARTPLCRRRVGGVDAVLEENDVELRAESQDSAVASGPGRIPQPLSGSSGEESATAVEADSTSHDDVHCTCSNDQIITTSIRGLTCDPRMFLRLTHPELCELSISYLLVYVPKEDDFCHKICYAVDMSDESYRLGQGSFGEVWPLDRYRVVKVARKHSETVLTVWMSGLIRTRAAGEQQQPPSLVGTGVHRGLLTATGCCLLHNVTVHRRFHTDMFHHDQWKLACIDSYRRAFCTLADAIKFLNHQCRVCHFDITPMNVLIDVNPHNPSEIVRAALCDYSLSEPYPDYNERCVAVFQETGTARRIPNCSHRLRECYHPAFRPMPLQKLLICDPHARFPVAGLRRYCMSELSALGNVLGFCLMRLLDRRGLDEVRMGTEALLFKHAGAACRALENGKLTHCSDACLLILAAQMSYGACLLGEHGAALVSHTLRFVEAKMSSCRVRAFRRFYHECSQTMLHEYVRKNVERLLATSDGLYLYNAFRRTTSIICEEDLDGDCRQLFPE
UniProt P31946: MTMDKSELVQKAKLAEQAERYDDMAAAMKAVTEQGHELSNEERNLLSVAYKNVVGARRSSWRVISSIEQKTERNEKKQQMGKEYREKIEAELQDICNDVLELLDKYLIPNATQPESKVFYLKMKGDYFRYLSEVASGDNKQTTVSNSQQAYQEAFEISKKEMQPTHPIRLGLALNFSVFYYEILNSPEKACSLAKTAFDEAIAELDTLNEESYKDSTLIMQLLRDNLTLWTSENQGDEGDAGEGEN
UniProt P20248: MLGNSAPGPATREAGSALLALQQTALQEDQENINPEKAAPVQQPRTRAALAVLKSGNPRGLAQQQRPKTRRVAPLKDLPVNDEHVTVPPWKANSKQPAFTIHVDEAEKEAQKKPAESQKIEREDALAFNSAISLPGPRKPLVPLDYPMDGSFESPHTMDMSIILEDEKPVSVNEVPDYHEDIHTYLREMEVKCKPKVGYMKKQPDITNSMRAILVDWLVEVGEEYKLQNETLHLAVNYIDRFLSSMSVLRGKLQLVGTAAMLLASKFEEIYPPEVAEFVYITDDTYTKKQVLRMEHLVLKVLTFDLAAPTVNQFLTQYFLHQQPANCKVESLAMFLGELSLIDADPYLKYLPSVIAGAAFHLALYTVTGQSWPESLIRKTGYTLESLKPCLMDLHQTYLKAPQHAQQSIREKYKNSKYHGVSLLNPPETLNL
UniProt Q9UNE7: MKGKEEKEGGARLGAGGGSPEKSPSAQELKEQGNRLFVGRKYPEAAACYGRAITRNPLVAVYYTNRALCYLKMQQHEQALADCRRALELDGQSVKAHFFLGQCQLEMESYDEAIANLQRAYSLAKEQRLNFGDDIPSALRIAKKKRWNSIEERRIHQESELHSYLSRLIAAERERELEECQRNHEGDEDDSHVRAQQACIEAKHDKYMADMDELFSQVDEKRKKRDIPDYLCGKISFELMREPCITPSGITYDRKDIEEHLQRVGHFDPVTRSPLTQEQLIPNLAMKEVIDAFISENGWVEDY
UniProt P60842: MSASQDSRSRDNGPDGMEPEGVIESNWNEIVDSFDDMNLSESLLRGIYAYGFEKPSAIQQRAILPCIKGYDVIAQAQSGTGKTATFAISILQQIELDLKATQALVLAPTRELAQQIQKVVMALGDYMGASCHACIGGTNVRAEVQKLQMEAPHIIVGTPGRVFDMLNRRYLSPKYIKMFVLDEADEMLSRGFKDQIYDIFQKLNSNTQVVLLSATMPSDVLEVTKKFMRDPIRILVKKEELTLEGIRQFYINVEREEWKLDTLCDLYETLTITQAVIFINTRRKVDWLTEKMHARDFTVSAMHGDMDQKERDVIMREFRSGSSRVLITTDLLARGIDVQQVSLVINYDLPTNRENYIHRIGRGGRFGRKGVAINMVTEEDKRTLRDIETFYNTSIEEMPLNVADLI
UniProt P17066: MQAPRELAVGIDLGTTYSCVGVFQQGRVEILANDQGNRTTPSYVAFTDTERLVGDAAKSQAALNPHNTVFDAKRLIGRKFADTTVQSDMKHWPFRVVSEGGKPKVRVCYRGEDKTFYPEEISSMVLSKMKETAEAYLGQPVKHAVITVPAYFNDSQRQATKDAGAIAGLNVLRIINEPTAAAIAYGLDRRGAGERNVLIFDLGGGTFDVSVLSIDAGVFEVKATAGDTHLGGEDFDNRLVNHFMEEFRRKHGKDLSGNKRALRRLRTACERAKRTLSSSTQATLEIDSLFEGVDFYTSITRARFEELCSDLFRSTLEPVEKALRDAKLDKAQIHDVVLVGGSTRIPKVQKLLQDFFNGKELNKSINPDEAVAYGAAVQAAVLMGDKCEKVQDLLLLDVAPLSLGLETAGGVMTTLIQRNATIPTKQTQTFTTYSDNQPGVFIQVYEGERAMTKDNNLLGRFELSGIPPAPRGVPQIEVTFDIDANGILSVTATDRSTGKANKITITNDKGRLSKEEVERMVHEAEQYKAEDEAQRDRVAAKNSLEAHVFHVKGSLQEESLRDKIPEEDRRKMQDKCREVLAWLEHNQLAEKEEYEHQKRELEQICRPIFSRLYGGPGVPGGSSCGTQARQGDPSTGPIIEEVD
UniProt Q92598: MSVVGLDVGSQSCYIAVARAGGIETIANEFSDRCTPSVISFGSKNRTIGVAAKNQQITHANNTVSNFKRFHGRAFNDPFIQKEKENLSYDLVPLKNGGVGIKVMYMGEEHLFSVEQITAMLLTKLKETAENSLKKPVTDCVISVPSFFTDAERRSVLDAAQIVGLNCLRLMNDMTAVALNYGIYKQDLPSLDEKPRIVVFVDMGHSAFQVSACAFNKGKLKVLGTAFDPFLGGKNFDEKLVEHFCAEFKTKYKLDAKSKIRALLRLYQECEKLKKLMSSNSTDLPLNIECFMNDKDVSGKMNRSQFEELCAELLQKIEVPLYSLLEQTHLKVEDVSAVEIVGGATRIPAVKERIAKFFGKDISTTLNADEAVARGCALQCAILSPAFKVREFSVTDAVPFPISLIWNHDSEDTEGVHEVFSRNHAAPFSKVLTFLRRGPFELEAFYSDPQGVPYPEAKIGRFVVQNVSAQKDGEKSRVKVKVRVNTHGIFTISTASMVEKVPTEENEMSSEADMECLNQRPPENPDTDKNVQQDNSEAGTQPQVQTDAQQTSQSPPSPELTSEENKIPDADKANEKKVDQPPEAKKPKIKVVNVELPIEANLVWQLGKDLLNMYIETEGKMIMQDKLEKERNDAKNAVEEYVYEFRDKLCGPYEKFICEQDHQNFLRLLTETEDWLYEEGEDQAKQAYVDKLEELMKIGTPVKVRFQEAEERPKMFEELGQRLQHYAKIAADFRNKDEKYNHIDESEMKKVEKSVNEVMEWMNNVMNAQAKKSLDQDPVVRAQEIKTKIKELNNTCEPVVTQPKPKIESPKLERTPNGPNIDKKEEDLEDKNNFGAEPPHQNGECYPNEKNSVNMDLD
UniProt P30086: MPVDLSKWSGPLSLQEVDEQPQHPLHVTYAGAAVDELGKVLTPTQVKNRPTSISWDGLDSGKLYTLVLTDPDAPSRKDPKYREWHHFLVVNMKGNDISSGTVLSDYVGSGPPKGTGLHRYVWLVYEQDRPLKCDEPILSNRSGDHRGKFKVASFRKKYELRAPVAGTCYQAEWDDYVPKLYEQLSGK
UniProt Q7KZI7: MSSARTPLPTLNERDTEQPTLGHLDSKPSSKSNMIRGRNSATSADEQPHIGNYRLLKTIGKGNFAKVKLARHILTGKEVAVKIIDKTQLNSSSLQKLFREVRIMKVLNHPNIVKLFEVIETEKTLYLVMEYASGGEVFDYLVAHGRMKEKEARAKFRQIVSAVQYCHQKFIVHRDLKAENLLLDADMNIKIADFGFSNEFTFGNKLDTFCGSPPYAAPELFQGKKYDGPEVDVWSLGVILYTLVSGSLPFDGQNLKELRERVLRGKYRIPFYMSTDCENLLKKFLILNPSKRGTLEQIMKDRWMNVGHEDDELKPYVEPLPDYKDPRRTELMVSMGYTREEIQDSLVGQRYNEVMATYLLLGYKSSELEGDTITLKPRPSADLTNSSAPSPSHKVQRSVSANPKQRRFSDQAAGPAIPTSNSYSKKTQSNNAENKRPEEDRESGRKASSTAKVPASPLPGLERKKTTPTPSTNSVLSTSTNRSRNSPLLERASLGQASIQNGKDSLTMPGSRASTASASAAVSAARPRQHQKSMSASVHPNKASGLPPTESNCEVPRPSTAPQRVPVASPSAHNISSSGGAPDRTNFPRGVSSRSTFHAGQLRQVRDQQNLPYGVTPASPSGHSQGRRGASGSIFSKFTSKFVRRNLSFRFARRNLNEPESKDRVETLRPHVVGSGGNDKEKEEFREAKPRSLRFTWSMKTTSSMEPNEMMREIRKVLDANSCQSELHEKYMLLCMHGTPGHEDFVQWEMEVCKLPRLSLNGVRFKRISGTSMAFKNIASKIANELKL
UniProt P31040, residues 43-664: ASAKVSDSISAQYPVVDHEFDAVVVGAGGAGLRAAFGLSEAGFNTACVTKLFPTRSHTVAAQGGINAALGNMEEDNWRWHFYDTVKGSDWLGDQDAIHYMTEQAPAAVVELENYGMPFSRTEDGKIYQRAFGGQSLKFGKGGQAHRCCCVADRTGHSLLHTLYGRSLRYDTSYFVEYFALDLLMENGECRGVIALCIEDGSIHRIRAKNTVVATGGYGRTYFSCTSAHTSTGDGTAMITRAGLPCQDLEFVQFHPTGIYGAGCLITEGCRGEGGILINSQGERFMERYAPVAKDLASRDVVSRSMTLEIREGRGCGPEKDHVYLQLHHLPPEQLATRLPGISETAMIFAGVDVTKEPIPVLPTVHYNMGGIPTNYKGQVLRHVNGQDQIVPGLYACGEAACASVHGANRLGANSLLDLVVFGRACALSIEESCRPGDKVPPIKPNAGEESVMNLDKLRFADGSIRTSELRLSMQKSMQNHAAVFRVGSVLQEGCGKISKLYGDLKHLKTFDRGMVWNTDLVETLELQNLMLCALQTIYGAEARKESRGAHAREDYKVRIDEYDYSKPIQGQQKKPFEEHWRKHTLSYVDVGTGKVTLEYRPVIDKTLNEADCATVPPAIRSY
UniProt Q99832: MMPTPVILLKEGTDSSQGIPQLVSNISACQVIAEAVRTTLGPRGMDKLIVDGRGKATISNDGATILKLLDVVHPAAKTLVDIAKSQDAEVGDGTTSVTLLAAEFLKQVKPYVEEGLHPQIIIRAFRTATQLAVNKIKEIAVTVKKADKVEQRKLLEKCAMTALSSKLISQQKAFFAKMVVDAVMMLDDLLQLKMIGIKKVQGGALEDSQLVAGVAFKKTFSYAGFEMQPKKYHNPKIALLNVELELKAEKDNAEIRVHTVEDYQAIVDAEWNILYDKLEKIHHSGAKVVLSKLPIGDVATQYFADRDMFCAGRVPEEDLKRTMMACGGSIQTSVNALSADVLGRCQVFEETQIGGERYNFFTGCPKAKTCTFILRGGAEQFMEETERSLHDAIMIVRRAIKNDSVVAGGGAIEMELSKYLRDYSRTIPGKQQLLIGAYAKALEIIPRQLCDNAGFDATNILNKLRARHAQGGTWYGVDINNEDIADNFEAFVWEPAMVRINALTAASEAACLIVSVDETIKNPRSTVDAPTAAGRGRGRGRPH
UniProt Q13263: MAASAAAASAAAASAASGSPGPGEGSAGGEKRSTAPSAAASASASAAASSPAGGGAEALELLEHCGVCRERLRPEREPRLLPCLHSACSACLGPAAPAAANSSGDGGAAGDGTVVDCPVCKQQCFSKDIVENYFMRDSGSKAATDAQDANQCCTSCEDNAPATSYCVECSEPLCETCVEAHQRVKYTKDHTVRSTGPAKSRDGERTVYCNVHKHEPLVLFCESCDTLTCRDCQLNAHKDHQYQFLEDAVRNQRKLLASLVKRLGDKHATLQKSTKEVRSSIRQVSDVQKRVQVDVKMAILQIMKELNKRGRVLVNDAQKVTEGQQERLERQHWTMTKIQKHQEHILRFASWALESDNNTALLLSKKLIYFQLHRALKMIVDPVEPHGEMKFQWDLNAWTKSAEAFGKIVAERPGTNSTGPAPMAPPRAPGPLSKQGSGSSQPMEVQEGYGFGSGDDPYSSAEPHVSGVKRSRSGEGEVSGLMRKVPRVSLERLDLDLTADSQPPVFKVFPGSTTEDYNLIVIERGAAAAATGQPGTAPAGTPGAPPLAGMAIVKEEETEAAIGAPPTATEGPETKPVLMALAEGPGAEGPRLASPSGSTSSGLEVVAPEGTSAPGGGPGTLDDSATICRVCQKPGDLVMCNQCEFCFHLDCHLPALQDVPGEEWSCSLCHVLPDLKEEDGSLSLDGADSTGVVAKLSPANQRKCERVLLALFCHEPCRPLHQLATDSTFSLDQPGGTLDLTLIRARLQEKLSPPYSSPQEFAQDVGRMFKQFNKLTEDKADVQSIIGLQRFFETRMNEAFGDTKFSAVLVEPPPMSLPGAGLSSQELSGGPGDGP

These molecules were tested against Carboxy-terminally Halo-tagged UL97 (pFC14a-HA-UL97 WT) (human cytomegalovirus (HCMV)) (UniProt P16788) (assay: affinity purification with mass spectrometry; C-terminally Halo-tagged UL97 or Halo alone transiently expressed in HEK-293T; lysate on HaloLink beads, 1 h bead incubation; eluted with TEV protease; LC-MS/MS (Orbitrap Elite); two biological replicates).

Molecule	binding
14-3-3 protein beta/alpha, endogenous (from UniProt P31946 1-246)	binds
14-3-3 ε, endogenous (from UniProt P62258 1-255)	binds
Basigin (from UniProt P35613 22-385)	binds
Cell division cycle protein 20 homolog (from UniProt Q12834 1-499)	binds
Cyclin-A2 (from UniProt P20248 1-432)	binds
DnaJ homolog subfamily A member 1 (from UniProt P31689 1-397)	binds
DnaJ homolog subfamily A member 2 (from UniProt O60884 1-412)	binds
DnaJ homolog subfamily B member 11 (from UniProt Q9UBS4 23-358)	binds
E3 ubiquitin-protein ligase CHIP (from UniProt Q9UNE7 1-303)	binds
Elongation factor 1-gamma (from UniProt P26641 1-437)	binds
Eukaryotic initiation factor 4A-I (from UniProt P60842 1-406)	binds
HSP90AA1 (from UniProt P07900 1-732)	binds
Heat shock 70 kDa protein 6 (from UniProt P17066 1-643)	binds
Heat shock protein 105 kDa (from UniProt Q92598 1-858)	binds
MAP/microtubule affinity-regulating kinase 3 (from UniProt P27448 1-753)	binds
Myosin light polypeptide 6 (from UniProt P60660 1-151)	binds
Nuclear mitotic apparatus protein 1 (from UniProt Q14980 1-2115)	binds
Phosphatidylethanolamine-binding protein 1 (from UniProt P30086 1-187)	binds
Phosphoglycerate mutase 1 (from UniProt P18669 1-254)	binds

Molecule	binding
Probable ATP-dependent RNA helicase DDX17 (from UniProt Q92841 1-729)	binds
Probable ubiquitin carboxyl-terminal hydrolase FAF-X (from UniProt Q93008 1-2554)	binds
Profilin-1 (from UniProt P07737 1-140)	binds
Protein disulfide-isomerase A3 (from UniProt P30101 25-505)	binds
Serine/threonine-protein kinase MARK2 (from UniProt Q7KZI7 1-788)	binds
Serine/threonine-protein phosphatase 2A 65 kDa regulatory subunit A alpha isoform (from UniProt P30153 1-589)	binds
Succinate dehydrogenase [ubiquinone] flavoprotein subunit, mitochondrial (from UniProt P31040 43-664)	binds
T-complex protein 1 subunit eta (from UniProt Q99832 1-543)	binds
TUBA1B (from UniProt P68363 1-451)	binds
Transcription intermediary factor 1-beta (from UniProt Q13263 1-835)	binds
Transitional endoplasmic reticulum ATPase (from UniProt P55072 1-806)	binds
B1	binds
B2	binds
B3	binds
B4	binds
B5	binds
B6	binds
B7	binds
B8	binds
